Source: publication PMC6539110, “A Novel G-Quadruplex Binding Protein in Yeast—Slx9”
A weaker result is weaker than the reference pair of the same experiment. Tags and fusion partners may be left off the protein sequences shown.

Biological target: T1, Slx9 (6xHis-Slx9) (Saccharomyces cerevisiae) (UniProt P53251)
T1 sequence (looked up): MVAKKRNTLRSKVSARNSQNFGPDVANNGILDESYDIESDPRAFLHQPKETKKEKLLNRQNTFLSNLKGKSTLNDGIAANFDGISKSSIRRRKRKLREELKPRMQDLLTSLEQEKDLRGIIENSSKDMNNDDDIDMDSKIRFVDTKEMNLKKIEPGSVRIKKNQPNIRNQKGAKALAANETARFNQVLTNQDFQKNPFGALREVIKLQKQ
Assay: MST
Conditions: Kd not in material; MST: 25 nM Cy5-DNA, NaCl (buffer partly given), 0.5% BSA, 0.05% Tween-20, 24 C; recombinant protein; residues 1-210; protein details: 6xHis (pET28a EcoRI/NotI, about 30 kDa); label: 5' 32P (filter binding), 5' Cy5 (MST); single-stranded …

“AAAAAAAAAAGCGTACGGTGCGTAATAACGCAAGCTATCGCG [G4mut (mut-G4IX)]”: binds more weakly.
